Data from paper PMC6347643.
These are yes or no findings as the source states them, for the method shown. Binding seen in cells or lysates may run through a third protein. Some entries that bind do so weakly or less than the wild type.

By UniProt entry, the sequences of proteins in these tests, tags left out.
UniProt P14859: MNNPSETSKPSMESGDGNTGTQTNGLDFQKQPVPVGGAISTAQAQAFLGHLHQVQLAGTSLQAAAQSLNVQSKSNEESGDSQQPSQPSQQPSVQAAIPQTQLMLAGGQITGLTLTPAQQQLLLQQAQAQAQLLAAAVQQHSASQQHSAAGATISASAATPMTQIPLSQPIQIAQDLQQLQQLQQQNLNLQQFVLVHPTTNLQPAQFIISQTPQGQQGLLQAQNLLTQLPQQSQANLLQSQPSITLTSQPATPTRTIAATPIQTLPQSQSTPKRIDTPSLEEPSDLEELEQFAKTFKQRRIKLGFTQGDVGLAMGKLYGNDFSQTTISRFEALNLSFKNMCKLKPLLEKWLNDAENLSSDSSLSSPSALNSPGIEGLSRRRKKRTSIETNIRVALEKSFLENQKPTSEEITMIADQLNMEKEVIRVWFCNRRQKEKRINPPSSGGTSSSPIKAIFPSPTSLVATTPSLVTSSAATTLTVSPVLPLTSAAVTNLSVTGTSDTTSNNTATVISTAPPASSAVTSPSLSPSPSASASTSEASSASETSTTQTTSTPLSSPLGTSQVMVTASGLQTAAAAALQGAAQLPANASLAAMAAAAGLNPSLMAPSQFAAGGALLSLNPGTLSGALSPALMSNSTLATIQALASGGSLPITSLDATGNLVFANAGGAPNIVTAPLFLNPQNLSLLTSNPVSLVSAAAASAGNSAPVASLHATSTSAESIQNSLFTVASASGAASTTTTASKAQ
UniProt P61290: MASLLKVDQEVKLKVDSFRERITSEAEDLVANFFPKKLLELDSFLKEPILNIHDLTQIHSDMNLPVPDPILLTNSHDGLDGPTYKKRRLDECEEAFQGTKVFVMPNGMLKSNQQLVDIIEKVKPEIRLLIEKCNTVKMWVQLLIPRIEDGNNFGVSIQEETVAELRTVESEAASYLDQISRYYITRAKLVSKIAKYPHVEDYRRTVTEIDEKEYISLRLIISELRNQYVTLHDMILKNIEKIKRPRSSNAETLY
UniProt Q53GL0: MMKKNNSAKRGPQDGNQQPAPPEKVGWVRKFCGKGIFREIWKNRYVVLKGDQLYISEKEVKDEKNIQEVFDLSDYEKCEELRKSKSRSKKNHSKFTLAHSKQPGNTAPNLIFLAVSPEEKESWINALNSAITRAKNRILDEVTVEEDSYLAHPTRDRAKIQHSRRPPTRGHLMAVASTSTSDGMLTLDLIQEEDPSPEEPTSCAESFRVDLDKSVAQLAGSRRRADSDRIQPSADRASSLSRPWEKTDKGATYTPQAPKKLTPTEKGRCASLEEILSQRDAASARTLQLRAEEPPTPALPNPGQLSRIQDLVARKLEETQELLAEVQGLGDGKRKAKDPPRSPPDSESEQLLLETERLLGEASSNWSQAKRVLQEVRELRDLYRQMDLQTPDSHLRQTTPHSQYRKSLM
UniProt Q9JIY0: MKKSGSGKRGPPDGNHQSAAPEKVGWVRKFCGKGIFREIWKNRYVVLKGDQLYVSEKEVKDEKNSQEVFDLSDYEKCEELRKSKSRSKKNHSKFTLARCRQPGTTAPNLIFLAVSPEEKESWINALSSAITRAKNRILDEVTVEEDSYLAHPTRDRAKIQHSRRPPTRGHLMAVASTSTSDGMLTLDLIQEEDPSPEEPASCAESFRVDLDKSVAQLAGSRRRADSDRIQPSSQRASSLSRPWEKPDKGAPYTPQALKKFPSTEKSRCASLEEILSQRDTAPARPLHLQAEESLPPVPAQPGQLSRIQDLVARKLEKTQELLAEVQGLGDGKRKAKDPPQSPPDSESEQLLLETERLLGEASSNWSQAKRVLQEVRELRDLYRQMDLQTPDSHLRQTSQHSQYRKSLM

How the values were obtained:
[1] = molecular target: HA-Oct-1 (octamer-binding transcription factor 1) (UniProt P14859); assay: co-IP; tagged proteins co-transfected into HEK293T cells (Fig. 3a, b, e; lanes of Fig. 3n without REGγ); HEPES lysis buffer (20 mM HEPES pH 7.2, 50 mM NaCl, 0.5% Triton X-100, 1 mM NaF, 1 mM DTT), protein A/G agarose, 4 °C, four washes
[2] = molecular target: endogenous REGγ of mouse bone marrow-derived macrophages (mouse (endogenous in BMDMs)) (UniProt P61290); assay: co-IP; endogenous proteins in mouse BMDMs; HEPES lysis buffer (20 mM HEPES pH 7.2, 50 mM NaCl, 0.5% Triton X-100, 1 mM NaF, 1 mM DTT), protein A/G agarose, 4 °C

Molecule	binding [1]	binding [2]
Myc-CKIP-1 (casein kinase 2-interacting protein-1) (from UniProt Q53GL0 1-409)	no binding	–
endogenous CKIP-1 of mouse bone marrow-derived macrophages (from UniProt Q9JIY0 1-408)	–	binds
endogenous Oct-1 of mouse bone marrow-derived macrophages (protein, UniProt P25425 1-770) MNNPSETNKSSMESEDASTGTQTNGLDFQKQPVPVGGAISTAQAQAFLGHLHQVQLAGTSLQAAAQSLNVQSKSSEESGDSQQSSQPSSQPPSVQSAIPQTQLMLAGGQITGLTLTPAQQQLLLQQAQAQAQLLAAAVQQHSASQQHSAAGATISASAATPMTQIPLSQPIQIAQDLQQLQQLQQQNLNLQQFVLVHPTTNLQPAQFIISQTPQGQQGLLQAQNLLTQLPQQSQANLLQPQPSITLTSQPTTPTRTIAAASVQTLPQSQSTPKRIDTPSLEEPSDLEELEQFAKTFKQRRIKLGFTQGDVGLAMGKLYGNDFSQTTISRFEALNLSFKNMCKLKPLLEKWLNDAENLSSDSTASSPSALNSPGLGAEGLNRRRKKRTSIETNIRVALEKSFMENQKPTSEDITLIAEQLNMEKEVIRVWFCNRRQKEKRINPPSSGGTSSSPIKAIFPSPASLVATTPSLVTSSTATTLTVNPVLPLTSAAVTNLSLTDQDLRRGCSWEVLRSLPDRVTTTAGTTDSTSNNNTATVISTAPPASSAVTSPSLSPSPSASASTSEASSASETNTTQTTSTPLPSPLGASQVMVTTPGLQTAAAALQGAAQLPANASLAAMAAAAGLSPGLMAPSQFAAGGALLSLSPGTLGSALSPALMSNSTLATIQALASSGSLPITSLDATGNLVFANAGGAPNIVTAPLFLNPQNLSLLTSNPVSLVSAAAASTGNSAPTASLHASSTSTESIQSSLFTVASASGPASTTTAASKAQ	–	binds
